Data reported in paper PMC7819943, “Rice protein-binding microarrays: a tool to detect cis-acting elements near promoter regions in rice”.
This is one part of the list.

biological target: T1, OsSMF1 (Oryza sativa, UniProt Q6ZLB0 1-436); experiment: protein-binding microarray (RPBM); PBS, 2% BSA, 51.3 ng/ul salmon testes DNA, 50 uM zinc acetate, 200 nM TF, 25 C, 1 h; high values mean tight binding; conditions: protein: recombinant; tags: N-terminal polyhistidine and DsRed monomer fusion (pET32a); chain copies: 2; label: CyDye5-dUTP incorporated in the synthesized complementary strand; 3' TTTTT single-stranded linker to array surface; dsDNA, one strand shown
T1 sequence: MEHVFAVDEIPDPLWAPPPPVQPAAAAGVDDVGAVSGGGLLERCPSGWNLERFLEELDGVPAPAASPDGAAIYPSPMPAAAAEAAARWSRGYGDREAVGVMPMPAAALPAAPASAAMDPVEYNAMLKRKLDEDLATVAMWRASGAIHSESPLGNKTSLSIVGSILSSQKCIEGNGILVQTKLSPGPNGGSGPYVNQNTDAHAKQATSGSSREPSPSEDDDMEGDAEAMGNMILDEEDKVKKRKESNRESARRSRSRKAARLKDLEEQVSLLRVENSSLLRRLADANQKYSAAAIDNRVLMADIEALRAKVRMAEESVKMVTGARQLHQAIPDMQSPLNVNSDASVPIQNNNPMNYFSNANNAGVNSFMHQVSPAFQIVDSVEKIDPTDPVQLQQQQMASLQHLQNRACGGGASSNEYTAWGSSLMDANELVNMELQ
Summary of the method: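 Binding signal here means per-feature fluorescence intensity in arbitrary units. The values were read on an Axon 4000B scanner after a custom Agilent array, double-stranded by primer extension with Cy5-dUTP, was incubated with 200 nM protein at 25 °C for 1 h in PBS with 2% BSA, salmon testes DNA and 50 µM zinc acetate, then washed. The proteins were transcription factors with an N-terminal polyhistidine tag and DsRed, expressed in E. coli BL21-CodonPlus and purified on Ni–NTA.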

Row | Sequence | binding signal
1 | TTATTTGGTGTTGTCAGGTCATATTCACCAATGAGTCGAACGGAGTCACCTAGTGCAG | 3640 fluorescence intensity (a.u.)
2 | AGTTGCCGGCGGTTCTCCCTAGCCGCTGACGCGTAGCTGCCGGAGTCACCTAGTGCAG | 5650 fluorescence intensity (a.u.)
3 | CATAGATTAATATGAAATATATAACTCCACAAATATGCAACGGAGTCACCTAGTGCAG | 3500 fluorescence intensity (a.u.)
4 | TGTGAAGGGTAGTAATTAAGACCCGTCATGGATGAGTGCTCGGAGTCACCTAGTGCAG | 3660 fluorescence intensity (a.u.)
5 | CGTCACGACGGGGCCGTACTTCTTGAACAGCGTCAGCAGGCGGAGTCACCTAGTGCAG | 6140 fluorescence intensity (a.u.)
6 | GAAATCTACCATCATGATAATTGCATCATTCTTAGTTGCTCGGAGTCACCTAGTGCAG | 3280 fluorescence intensity (a.u.)
7 | AGCCCCGACCCCGATGATTGCCGCGTGGACAACCGTAGAACGGAGTCACCTAGTGCAG | 4190 fluorescence intensity (a.u.)
8 | TGGTCGGTGCCGCACGTCACAGCCGCCAAATCATCCTCCTCGGAGTCACCTAGTGCAG | 8440 fluorescence intensity (a.u.)
9 | ACCATTTCTTCACATCACTGGGTCTATGAAACAATTTTAGCGGAGTCACCTAGTGCAG | 3820 fluorescence intensity (a.u.)
10 | CGATGTGGACAAGTGAAAGGCACTTATGTGGCAATTTGTGCGGAGTCACCTAGTGCAG | 3760 fluorescence intensity (a.u.)
11 | GTTCGTACTTCATTTCTTCTGTAGATGAAGATAGAGATAACGGAGTCACCTAGTGCAG | 28000 fluorescence intensity (a.u.)
12 | CGAGTGGCTTTTCTTGTAAAAGAATTGCGTAATAGGCGTGCGGAGTCACCTAGTGCAG | 4150 fluorescence intensity (a.u.)
13 | AGATCCTGTAGTGCTTCATGAAGATGATCAGACAGCACATCGGAGTCACCTAGTGCAG | 3300 fluorescence intensity (a.u.)
14 | CTCATCCAGCTACAGTCATCCAGAGACAGCCTGCCTCAGCCGGAGTCACCTAGTGCAG | 3510 fluorescence intensity (a.u.)
15 | CTACATCGAATTTATACCGTATTAGATTACCTGATAGAGGCGGAGTCACCTAGTGCAG | 22400 fluorescence intensity (a.u.)
16 | GGCCATGTCCATACACGGCAGACTCACACAACCAACATTCCGGAGTCACCTAGTGCAG | 3280 fluorescence intensity (a.u.)
17 | GCGACACGTCGCGACGCCGCTTGCCACGCGCCACGCGCGACGGAGTCACCTAGTGCAG | 5080 fluorescence intensity (a.u.)
18 | GTTAGATGGGTAAGTGACTCACTTACCTCACATTAGTGACCGGAGTCACCTAGTGCAG | 4960 fluorescence intensity (a.u.)
19 | TGTCCACGTAAGTTGGGTCATCGTGCCCACGTTCTGTAATCGGAGTCACCTAGTGCAG | 4590 fluorescence intensity (a.u.)
20 | GTGTATGACGTGTTGGTTTGCTGCCCGAACTTGCCATGCACGGAGTCACCTAGTGCAG | 13200 fluorescence intensity (a.u.)
21 | AACCGACAAACCCTAACCCTAGCCACATCAGTCTGGAGTCCGGAGTCACCTAGTGCAG | 3980 fluorescence intensity (a.u.)

Entries 5 to 6 from above:
Row | Sequence | binding signal
5 | CGTCACGACGGGGCCGTACTTCTTGAACAGCGTCAGCAGGCGGAGTCACCTAGTGCAG | 6140 fluorescence intensity (a.u.)
6 | GAAATCTACCATCATGATAATTGCATCATTCTTAGTTGCTCGGAGTCACCTAGTGCAG | 3280 fluorescence intensity (a.u.)

Next records follow:

Row | Sequence | binding signal
22 | AATCACGCAAGCCTGATGCATCACATGCTCCAGTTAATCACGGAGTCACCTAGTGCAG | 3860 fluorescence intensity (a.u.)
23 | GGCATTATGACACGCATCTATTCTGTAATTGATGCTCCTGCGGAGTCACCTAGTGCAG | 4900 fluorescence intensity (a.u.)
24 | CCGCCATATCCGCTCTCCGCGCGTCACCTCGTGTCGCGTCCGGAGTCACCTAGTGCAG | 4070 fluorescence intensity (a.u.)
25 | GGCAATGCCTCGCACCACGGACCTGGAACGATGGCTTTGGCGGAGTCACCTAGTGCAG | 3470 fluorescence intensity (a.u.)
26 | CCGCATGTGACCACCGGTGTTGTTGTTGGTCACATCTCTACGGAGTCACCTAGTGCAG | 3140 fluorescence intensity (a.u.)
27 | GCGGCGCTGCCATGCCAACACGCGGCGCCAGCGACCAGCGCGGAGTCACCTAGTGCAG | 3840 fluorescence intensity (a.u.)
28 | GCATGTCATAATCTTGAGATAACGGTTATGCAACTGTTTACGGAGTCACCTAGTGCAG | 22000 fluorescence intensity (a.u.)
29 | GTACATGCGTGTGCCACTTCCTCTATTACGAATGCGTGCACGGAGTCACCTAGTGCAG | 21400 fluorescence intensity (a.u.)
30 | TTCTATCCATAGGATTTTAGGTGATATGGCACTCAAATCGCGGAGTCACCTAGTGCAG | 4620 fluorescence intensity (a.u.)
31 | CAGCAGCGCAATGCCTCGCGCTGCTCTCCGTCGCCGCCGCCGGAGTCACCTAGTGCAG | 7600 fluorescence intensity (a.u.)
32 | CAAACGCTCTCAAGCCGCCAAGTGGCGCTCTAATAAAATACGGAGTCACCTAGTGCAG | 3580 fluorescence intensity (a.u.)
33 | TAGCCGCCTCATCTCGCCCATTCGCTTCCCCGTCATAAAGCGGAGTCACCTAGTGCAG | 3190 fluorescence intensity (a.u.)
34 | GTAAGAGGGAGGTAAAATAGACTCACGTGAGGAGTCAACACGGAGTCACCTAGTGCAG | 3510 fluorescence intensity (a.u.)
35 | GAACCCACCCCGCGTCCCGGACCACGTCCTGCTCGCCTGGCGGAGTCACCTAGTGCAG | 3390 fluorescence intensity (a.u.)
36 | TCGTGTGTGCGCAACTGTTTATATGCACGTGTAGCTGCTTCGGAGTCACCTAGTGCAG | 3420 fluorescence intensity (a.u.)
37 | TAGGTAGGTAACCGATCGCAACGTTTCATGACGGAGACAGCGGAGTCACCTAGTGCAG | 3380 fluorescence intensity (a.u.)
38 | CAAACCAACTTTATATTCTTGTCTAACATCGGTTTAGAAACGGAGTCACCTAGTGCAG | 5060 fluorescence intensity (a.u.)
39 | GGCACCACCGTCACCACGTCACGGGGCAAATCGGATGCCTCGGAGTCACCTAGTGCAG | 13600 fluorescence intensity (a.u.)
40 | TTCTAACTTCACCTAGCCGTGTTGTGCAGCTTGAACTACCCGGAGTCACCTAGTGCAG | 18600 fluorescence intensity (a.u.)
41 | TTTATTTTGGACCAAATAGTATATATTATATCTTATATTACGGAGTCACCTAGTGCAG | 6700 fluorescence intensity (a.u.)
42 | AAGCGTGGCGACGACAGGTGATGAGGGAACTCATTGAACCCGGAGTCACCTAGTGCAG | 7990 fluorescence intensity (a.u.)
